Test results as given in patent publication US10634592B2, “Process for microextraction and detection of an analyte” (KING FAHD UNIVERSITY OF PETROLEUM AND MINERALS, priority 2015, dated 2020).

Settings: air dried green alga, unspiked real sample

| Compound | Contents in Green alga |
| --- | --- |
| ClC(Cl)Br [BDCM, bromodichloromethane] | 2.9 ng/g |
| ClC(Br)Br [DBCM, dibromochloromethane] | 3.0 ng/g |
| CC(=O)C(Cl)Cl [DCP, 1,1-dichloro-2-propanone] | 1.8 ng/g |
| BrC(Br)Br [TBM, tribromomethane] | 2.5 ng/g |
| ClC(Cl)Cl [TCM, trichloromethane] | 0.9 ng/g |
| CC(=O)C(Cl)(Cl)Cl [TCP, 1,1,1-trichloro-2-propanone] | 1.9 ng/g |
